Measured data: PubChem BioAssay AID652272 (Drosophila RNAi Screening Center, 2013)

Test: 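Finding fly genes that regulate Hedgehog signal transduction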 (primary screen)
Cells: Drosophila clone 8 (Cl8) cells
Knock-down reagent: long dsRNA against Drosophila genes
Measured: 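Plate reader light from a firefly reporter under a ptc promoter fragment that responds to Hedgehog, with Renilla light as transfection reference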
Direction: firefly Hh reporter signal: higher = more ptc reporter light; Renilla reference signal: higher = more Renilla control light
Active means: 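Called a hit if the two-replicate mean z-score lies below -2 or above +3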
Meaning of the calls: active = hit: reporter lowered or raised; inactive = not a hit
The screen tested about 21,000 reagents; shown is a random part of those with a known target gene and a result. Over the whole deposit, 503 (2.4%) were called active. 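Raw plate light values, not normalised; calls rest on replicate z-scores that were not deposited; hits include reporter decreases as well as increases.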 Reagents against one gene are numbered here. Names joined by + are all predicted targets of the reagent. Reagent sequences are not shown. Not stated in the record: the amount of reagent, the time to read-out.

target gene | dsRNA no. | firefly Hh reporter signal, replicate 1 | firefly Hh reporter signal, replicate 2 | firefly Hh reporter signal, replicate 3 | Renilla reference signal, replicate 1 | Renilla reference signal, replicate 2 | call
Hyccin | 1 | 94002 | 98346 | – | 4312 | 4054 | inactive
Lcp2 (Larval cuticle protein 2) | 1 | 91809 | 64882 | – | 2145 | 4917 | inactive
CG15653 | 1 | 1.30e5 | 72017 | – | 3136 | 5352 | inactive
Irk3 (Inwardly rectifying potassium channel 3) | 1 | 81159 | 60967 | – | 1848 | 5401 | inactive
CG6830 | 1 | 69639 | 1.24e5 | – | 2848 | 3322 | inactive
CG12398 | 1 | 72664 | 37731 | – | 4802 | 1272 | inactive
CG12825 | 1 | 1.43e5 | 71251 | – | 3956 | 5926 | inactive
snoRNA:Me28S-A982b + Uhg4 + snoRNA:Me28S-G3255a + 1 more | 1 | 1.17e5 | 2.73e5 | – | 3361 | 11565 | inactive
E23 (Early gene at 23) | 1 | 42744 | 17237 | – | 1322 | 1744 | inactive
E23 (Early gene at 23) | 2 | 79861 | 44704 | – | 2344 | 4995 | inactive
Cubn2 (Cubilin 2) | 1 | 68994 | 80310 | 63056 | 8604 | 5348 | inactive
CG11815 | 1 | 81702 | 32154 | – | 2608 | 2202 | inactive
Vinc (Vinculin) | 1 | 1.58e5 | 75421 | – | 3120 | 2919 | inactive
CG10035 | 1 | 1.14e5 | 1.67e5 | – | 3240 | 4237 | inactive
GluRS-m (Glutamyl-tRNA synthetase, mitochondrial) | 1 | 1.00e5 | – | – | 5629 | 2972 | inactive
Ttc19 (Tetratricopeptide repeat domain 19) | 1 | 61190 | 35397 | – | 1824 | 3794 | inactive
CG34149 | 1 | 82800 | 88129 | – | 3737 | 3526 | inactive
Cln3 | 1 | 84125 | – | – | 3803 | 2775 | inactive
brk (brinker) | 1 | 38049 | 2.31e5 | – | 1368 | 9124 | inactive
CG9581 | 1 | 1.94e5 | 5.86e5 | 1.30e5 | 4371 | 35033 | inactive
be (ben) | 1 | 1.75e5 | 1.20e5 | – | 4187 | 2666 | inactive
be (ben) | 2 | 70781 | 1.77e5 | – | 1443 | 7746 | inactive
be (ben) | 3 | 1.05e5 | 2.34e5 | – | 1810 | 9753 | inactive
CG5292 | 1 | 82848 | 90025 | – | 2221 | 6026 | inactive
CG12729 | 1 | 80771 | 1.61e5 | – | 2677 | 6290 | inactive
FoxK (Forkhead box K) | 1 | 71595 | 66736 | – | 4308 | 2531 | inactive
asRNA:CR43433 + Rbp6 | 1 | 2.86e5 | – | – | 6249 | – | inactive
Mco1 (Multicopper oxidase 1) | 1 | 1.27e5 | 75227 | – | 3756 | 7111 | inactive
CG3078 | 1 | 92075 | 73936 | – | 3028 | 2789 | inactive
ss (spineless) | 1 | 65186 | 87686 | – | 2032 | 2214 | inactive
spag4 (sperm-associated antigen 4) | 1 | 79931 | 56547 | – | 2074 | 5233 | inactive
Spc25 | 1 | 1.18e5 | 1.06e5 | – | 3477 | 2530 | inactive
jtb (jetboil) | 1 | 76342 | 53648 | – | 2336 | 3904 | inactive
Efhc1.2 (EF-hand domain containing 1.2) | 1 | 72084 | 62685 | – | 2993 | 2796 | inactive
NAT1 | 1 | 45733 | 29448 | – | 2528 | 1475 | inactive
CG5162 | 1 | 77035 | 2.09e5 | – | 1960 | 7899 | inactive
shot (short stop) | 1 | 51568 | 1.06e5 | – | 4824 | 7316 | inactive
shot (short stop) | 2 | 83041 | 1.49e5 | – | 7152 | 7926 | inactive
shot (short stop) | 3 | 1.06e5 | 78197 | – | 4436 | 3337 | inactive
CG6282 | 1 | 1.53e5 | 1.02e5 | – | 6594 | 3987 | inactive
CG10254 | 1 | 76963 | 86280 | – | 2994 | 3041 | inactive
TwdlE (TweedleE) | 1 | 1.04e5 | 55283 | – | 2938 | 5232 | inactive
CG7560 | 1 | 63060 | 72616 | 80236 | 6032 | 5570 | inactive
eIF6 (eukaryotic translation initiation factor 6) | 1 | 72394 | 54149 | – | 3972 | 2634 | inactive
Ubc6 (Ubiquitin conjugating enzyme 6) | 1 | 1.05e5 | 75414 | – | 6065 | 4481 | active
CG18063 | 1 | 70150 | 47089 | – | 1767 | 4244 | inactive
soti (scotti) | 1 | 1.49e5 | 1.00e5 | – | 5898 | 4130 | inactive
CG15358 | 1 | 97560 | 1.09e5 | – | 2304 | 2643 | inactive
CG16978 | 1 | 1.30e5 | 61456 | – | 3250 | 4951 | inactive
CG30287 | 1 | 98320 | 1.99e5 | – | 2768 | 9399 | inactive
CG31533 | 1 | 33113 | 1.63e5 | – | 1592 | 2008 | inactive
CG18577 | 1 | 60338 | 85664 | – | 2459 | 2593 | inactive
Ras85D (Ras oncogene at 85D) | 1 | 80140 | 96599 | – | 2480 | 2422 | inactive
CG10467 | 1 | 52694 | 44880 | – | 4945 | 3362 | inactive
nonC (no-on-and-no-off transient C) | 1 | 1.10e5 | 82528 | – | 1362 | 803 | active
nonC (no-on-and-no-off transient C) | 2 | 1.68e5 | 6.23e5 | – | 3015 | 8816 | active
CG32855 | 1 | 40305 | 1.67e5 | – | 8730 | 2950 | inactive
